Results: US20160311845

Chains of the proteins cited; added tags and fusions are not shown. Chains listed by the source or under a name are the forms on record and can include a tag or linker.
VEGF (Homo sapiens), one chain, as listed by the source: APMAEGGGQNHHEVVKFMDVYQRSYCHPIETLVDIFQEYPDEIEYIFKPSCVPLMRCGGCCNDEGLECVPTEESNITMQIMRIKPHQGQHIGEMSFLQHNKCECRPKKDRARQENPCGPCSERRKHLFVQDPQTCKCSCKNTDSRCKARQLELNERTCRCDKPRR

These sequences were tested on VEGF (Homo sapiens) (assay: SELEX). Conditions: KK10 (dUgu) replaces T outside the 5' primer region; NECEEM-selected; 1 mM MgCl2, 10 mM NaCl, pH 7.4; purified recombinant protein; single-stranded DNA.

Selection result, selected:
TCGCTCGGCAGGATCGCAAGAAGGATGATCGATAAGCGGTCTATAGAGGGTGGACGGAGCAGTGGCAGCA [KK10 VEGF aptamer SEQ 6]

Same assay, conditions: KK10 (dUgu) replaces T outside the 5' primer region; NECEEM-selected; purified recombinant protein; single-stranded DNA

Selection result, selected:
TCGCTCGGCAGGATCGCAAGGGCAGTGAGTTGTTAAGTACCCACATGAAGTGGACGGAGCAGTGGCAGCA [KK10 VEGF aptamer SEQ 10]
TCGCTCGGCAGGATCGCAAGGAACCTCTACCTAGGCTACGTACTTGCGGCTGGACGGAGCAGTGGCAGCA [KK10 VEGF aptamer SEQ 14]
TCGCTCGGCAGGATCGCAAGCGTGGATACGGTACTAAACGAAGTAACCCTTGGACGGAGCAGTGGCAGCA [KK10 VEGF aptamer SEQ 11]
TCGCTCGGCAGGATCGCAAGTCGCGTTTAAGGGTAAGTAGGGCATTGCCATGGACGGAGCAGTGGCAGCA [KK10 VEGF aptamer SEQ 36]
TCGCTCGGCAGGATCGCACGCTAGGGTGTCGGCACGAACTAACAAAACTGTGGACGGAGCAGTGGCAGCA [KK10 VEGF aptamer SEQ 25]
TCGCTCGGCAGGATCGCAAGTCAGGCGCTTGGCATGCTCGATGAGTCTGGTGGACGGAGCAGTGGCAGCA [KK10 VEGF aptamer SEQ 8]
TCGCTCGGCAGGATCGCAAGTCGCGTTTAAGGGGAAGTAGGGCATTGTCATGGACGGAGCAGTGGCAGCA [KK10 VEGF aptamer SEQ 39]
TCGCTCGGCAGGATCGCATGAGCGTGAGAGCTTAGAATTCCCACTTGAGCTGGACGGAGCAGTGGCAGCA [KK10 VEGF aptamer SEQ 33]
TCGCTCGGCAGGATCGCAAGAGCGGGGTTAGTATAGTTCTGGAATGAAGTTGGACGGAGCAGTGGCAGCA [KK10 VEGF aptamer SEQ 17]
TCGCTCGGCAGGATCGCAAGGAGTTCATGAGGGGAAAATGTGGGGTGACTTGGACGGAGCAGTGGCAGCA [KK10 VEGF aptamer SEQ 23]
TCGCTCGGCAGGATCGCAAGAGAGACCACAGCTGAGTTGTATACGAGAAGTGGACGGAGCAGTGGCAGCA [KK10 VEGF aptamer SEQ 15]
TCGCTCGGCAGGATCGCAAGGAGGTTCATGAAAAAATAAACGGTGGTCCATGGACGGAGCAGTGGCAGCA [KK10 VEGF aptamer SEQ 29]
TCGCTCGGCAGGATCGCAAGATAGCATCCCACGGTTTCTAATTGCTACGCTGGACGGAGCAGTGGCAGCA [KK10 VEGF aptamer SEQ 18]
TCGCTCGGCAGGATCGCACGGAGGTTCATGAAAAAATAAACGGTGGTCCATGGACGGAGCAGTGGCAGCA [KK10 VEGF aptamer SEQ 28]
TCGCTCGGCAGGATCGCAAGAGCGTGAGAGCTTAGAATTCCCACTTGAGCTGGACGGAGCAGTGGCAGCA [KK10 VEGF aptamer SEQ 31]
TCGCTCGGCAGGATCGCAAGGAGTTCATGAGGGGAAAATGTGGGGTGACCTGGACGGAGCAGTGGCAGCA [KK10 VEGF aptamer SEQ 22]
TCGCTCGGCAGGATCGCACGAGCGTGAGAGCTTAGAATTCCCACTTGAGTTGGACGGAGCAGTGGCAGCA [KK10 VEGF aptamer SEQ 34]
TCGCTCGGCAGGATCGCAAGTCGAGTTTAAGGGTAAGTAGGGCATTGTCATGGACGGAGCAGTGGCAGCA [KK10 VEGF aptamer SEQ 40]
TCGCTCGGCAGGATCGCAAGACGTGAGAGCTTAGAATTCCCACTTGAGCTGGACGGAGCAGTGGCAGCA [KK10 VEGF aptamer SEQ 32]
TCGCTCGGCAGGATCGCAAGCCGCGTTTAAGGGTAAGTAGGGCATTGTCATGGACGGAGCAGTGGCAGCA [KK10 VEGF aptamer SEQ 37]
TCGCTCGGCAGGATCGCAAGTCGCGTTTAAGGGTAAGTAGGGCATTGTCATGGACGGAGCAGTGGCAGCA [KK10 VEGF aptamer SEQ 35]
TCGCTCGGCAGGATCGCACGGGCGAAGGGGAACAGATATTCTCTGATGCATGGACGGAGCAGTGGCACAA [KK10 VEGF aptamer SEQ 9]
TCGCTCGGCAGGATCGCAAGGGCGTGACCGGTTCATTCCTTAATTTACAATGGACGGAGCAGTGGCAGCA [KK10 VEGF aptamer SEQ 13]
TCGCTCGGCAGGATCGCAAGGAGGTTCATGAAGAAATAAACGGTGGTCCATGGACGGAGCAGTGGCAGCA [KK10 VEGF aptamer SEQ 30]
TCGCTCGGCAGGATCGCAAGATCCATGTAACGGCTGTTAGCTCATAGGACTGGACGGAGCAGTGGCAGCA [KK10 VEGF aptamer SEQ 7]
TCGCTCGGCAGGATCGCAAGCGTGAGAAGGATGGGGGTCTGAGGTTGAGTTGGACGGAGCAGTGGCAGCA [KK10 VEGF aptamer SEQ 19]
TCGCTCGGCAGGATCGCAAGTATGGCCGGATGGCATAGGATTCTCCTTCGTGGACGGAGCAGTGGCAGCA [KK10 VEGF aptamer SEQ 26]
TCGCTCGGCAGGATCGCAAGGACATGTACCTTTGCACGCGCTCACTACCTTGGACGGAGCAGTGGCAGCA [KK10 VEGF aptamer SEQ 21]
TCGCTCGGCAGGATCGCAAGGACAAGTACCTTTGCACGCGCTCACTACCTTGGACGGAGCAGTGGCAGCA [KK10 VEGF aptamer SEQ 20]
TCGCTCGGCAGGATCGCACGTCGCGTTTAAGGGTAAGTAGGGCATTGTCATGGACGGAGCAGTGGCAGCA [KK10 VEGF aptamer SEQ 38]
TCGCTCGGCAGGATCGCACGCGTGAACTTGTATTCACGAGCGGTAACACATGGACGGAGCAGTGGCAGCA [KK10 VEGF aptamer SEQ 16]
TCGCTCGGCAGGATCGCACGTATGGCCGGATGGCATAGGATTCTCCTTCGTGGACGGAGCAGTGGCAGCA [KK10 VEGF aptamer SEQ 27]
TCGCTCGGCAGGATCGCAAGCCGAGACTGCGTTGTAGGGGCAAGTGGCAATGGACGGAGCAGTGGCAGCA [KK10 VEGF aptamer SEQ 12]
TCGCTCGGCAGGATCGCAAGCTAGGGTGTCGGCACGAACTAACAAAACTGTGGACGGAGCAGTGGCAGCA [KK10 VEGF aptamer SEQ 24]

For at least one entry, the source does not settle the construct or the ends of the probe.
